Assay results from paper PMC7097882.
No constants are given. Whether binding was seen depends on the method and setting. In cells and extracts the contact can be indirect. A yes stands for co-enrichment or nearness to the bait. Other partners may have been found. Sequences can lack the tags named with a protein.

Amino acid sequences for entries named in this document (tags omitted).
UniProt A2AIV2: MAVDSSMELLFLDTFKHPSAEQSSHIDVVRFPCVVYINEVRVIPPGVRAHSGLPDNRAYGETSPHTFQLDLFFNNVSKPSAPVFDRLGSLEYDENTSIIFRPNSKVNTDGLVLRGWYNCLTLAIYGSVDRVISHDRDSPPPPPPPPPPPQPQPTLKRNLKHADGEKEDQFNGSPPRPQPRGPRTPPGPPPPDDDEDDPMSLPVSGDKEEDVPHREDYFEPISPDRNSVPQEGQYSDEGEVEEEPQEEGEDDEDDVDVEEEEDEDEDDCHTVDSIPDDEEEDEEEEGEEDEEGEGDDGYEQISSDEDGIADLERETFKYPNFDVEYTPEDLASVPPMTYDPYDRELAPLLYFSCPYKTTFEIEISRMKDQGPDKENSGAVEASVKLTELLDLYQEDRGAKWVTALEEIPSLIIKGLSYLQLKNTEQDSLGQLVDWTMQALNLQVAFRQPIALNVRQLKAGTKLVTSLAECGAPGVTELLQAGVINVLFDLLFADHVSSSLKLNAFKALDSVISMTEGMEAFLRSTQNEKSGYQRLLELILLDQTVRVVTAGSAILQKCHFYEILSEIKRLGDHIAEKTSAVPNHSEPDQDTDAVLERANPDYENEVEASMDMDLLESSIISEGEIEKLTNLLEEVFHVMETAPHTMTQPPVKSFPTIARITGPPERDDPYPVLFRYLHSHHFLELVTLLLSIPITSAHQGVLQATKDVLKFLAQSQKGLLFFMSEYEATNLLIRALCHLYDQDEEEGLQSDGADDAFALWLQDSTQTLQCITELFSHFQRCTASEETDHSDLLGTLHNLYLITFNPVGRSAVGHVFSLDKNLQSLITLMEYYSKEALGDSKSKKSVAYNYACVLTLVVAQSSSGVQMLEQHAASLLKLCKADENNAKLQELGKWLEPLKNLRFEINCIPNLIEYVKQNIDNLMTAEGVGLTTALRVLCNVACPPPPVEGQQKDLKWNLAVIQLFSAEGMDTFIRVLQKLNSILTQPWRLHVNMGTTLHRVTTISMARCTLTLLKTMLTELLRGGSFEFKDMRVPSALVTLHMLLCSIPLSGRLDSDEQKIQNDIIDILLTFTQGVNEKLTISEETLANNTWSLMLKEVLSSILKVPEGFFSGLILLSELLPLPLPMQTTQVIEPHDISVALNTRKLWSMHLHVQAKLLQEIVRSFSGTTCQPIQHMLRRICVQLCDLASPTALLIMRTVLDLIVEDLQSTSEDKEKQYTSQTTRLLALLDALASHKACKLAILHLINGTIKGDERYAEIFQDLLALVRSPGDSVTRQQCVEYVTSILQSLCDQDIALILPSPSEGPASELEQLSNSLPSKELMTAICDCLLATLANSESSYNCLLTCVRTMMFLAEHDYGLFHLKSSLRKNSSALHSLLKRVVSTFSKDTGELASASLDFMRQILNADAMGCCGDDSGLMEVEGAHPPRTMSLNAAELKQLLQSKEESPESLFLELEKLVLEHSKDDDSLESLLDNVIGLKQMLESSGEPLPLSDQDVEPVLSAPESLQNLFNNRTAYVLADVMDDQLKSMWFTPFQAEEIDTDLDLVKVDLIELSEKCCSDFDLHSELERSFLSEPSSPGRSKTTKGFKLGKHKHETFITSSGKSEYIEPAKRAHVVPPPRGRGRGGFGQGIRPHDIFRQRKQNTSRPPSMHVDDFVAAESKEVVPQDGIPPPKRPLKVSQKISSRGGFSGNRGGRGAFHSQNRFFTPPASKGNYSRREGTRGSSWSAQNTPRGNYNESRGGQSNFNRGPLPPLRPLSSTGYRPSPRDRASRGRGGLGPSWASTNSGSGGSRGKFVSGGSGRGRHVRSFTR
UniProt P97868: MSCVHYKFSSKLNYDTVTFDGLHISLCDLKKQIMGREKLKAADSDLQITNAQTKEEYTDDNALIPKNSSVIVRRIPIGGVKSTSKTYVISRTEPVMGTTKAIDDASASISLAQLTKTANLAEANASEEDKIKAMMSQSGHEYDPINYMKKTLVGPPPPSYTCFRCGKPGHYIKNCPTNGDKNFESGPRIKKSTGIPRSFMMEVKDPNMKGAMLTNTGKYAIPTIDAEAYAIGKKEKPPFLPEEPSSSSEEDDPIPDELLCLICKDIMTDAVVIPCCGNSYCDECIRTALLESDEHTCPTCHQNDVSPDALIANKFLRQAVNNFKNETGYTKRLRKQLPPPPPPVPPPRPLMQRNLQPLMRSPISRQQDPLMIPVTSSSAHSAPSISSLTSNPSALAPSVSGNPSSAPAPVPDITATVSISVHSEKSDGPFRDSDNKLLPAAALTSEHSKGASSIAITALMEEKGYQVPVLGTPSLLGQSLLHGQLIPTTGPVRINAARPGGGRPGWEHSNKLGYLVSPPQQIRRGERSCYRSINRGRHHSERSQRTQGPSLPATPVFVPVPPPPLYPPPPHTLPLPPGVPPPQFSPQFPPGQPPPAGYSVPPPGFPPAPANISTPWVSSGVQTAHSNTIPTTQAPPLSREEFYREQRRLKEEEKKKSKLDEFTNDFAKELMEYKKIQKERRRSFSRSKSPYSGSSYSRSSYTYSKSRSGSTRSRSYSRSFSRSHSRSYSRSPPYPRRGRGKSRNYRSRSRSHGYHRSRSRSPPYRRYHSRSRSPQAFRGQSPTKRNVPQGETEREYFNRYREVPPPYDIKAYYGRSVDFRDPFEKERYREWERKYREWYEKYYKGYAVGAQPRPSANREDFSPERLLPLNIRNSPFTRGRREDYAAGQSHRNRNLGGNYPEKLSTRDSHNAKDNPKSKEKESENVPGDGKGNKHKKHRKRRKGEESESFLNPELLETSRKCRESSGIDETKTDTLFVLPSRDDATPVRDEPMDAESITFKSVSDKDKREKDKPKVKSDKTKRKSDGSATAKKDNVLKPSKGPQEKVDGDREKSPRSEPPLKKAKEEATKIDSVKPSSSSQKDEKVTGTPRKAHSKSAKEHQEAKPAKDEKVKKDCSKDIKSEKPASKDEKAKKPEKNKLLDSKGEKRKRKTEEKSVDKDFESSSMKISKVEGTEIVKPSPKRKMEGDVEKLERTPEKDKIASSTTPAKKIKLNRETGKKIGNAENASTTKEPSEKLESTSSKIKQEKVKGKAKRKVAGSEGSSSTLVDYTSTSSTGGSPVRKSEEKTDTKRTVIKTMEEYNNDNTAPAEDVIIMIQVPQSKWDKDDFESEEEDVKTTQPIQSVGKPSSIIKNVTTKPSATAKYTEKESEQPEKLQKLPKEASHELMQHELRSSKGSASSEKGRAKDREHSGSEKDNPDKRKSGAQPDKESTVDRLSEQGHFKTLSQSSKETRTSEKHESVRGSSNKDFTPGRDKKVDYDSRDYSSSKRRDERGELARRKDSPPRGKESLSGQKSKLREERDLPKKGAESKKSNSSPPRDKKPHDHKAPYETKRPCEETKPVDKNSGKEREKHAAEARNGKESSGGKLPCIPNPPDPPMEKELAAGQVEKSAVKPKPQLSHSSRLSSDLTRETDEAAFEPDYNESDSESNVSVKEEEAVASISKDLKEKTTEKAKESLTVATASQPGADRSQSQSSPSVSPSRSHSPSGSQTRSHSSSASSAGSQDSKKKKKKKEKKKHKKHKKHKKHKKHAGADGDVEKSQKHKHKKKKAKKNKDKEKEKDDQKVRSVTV
UniProt Q8BFQ4: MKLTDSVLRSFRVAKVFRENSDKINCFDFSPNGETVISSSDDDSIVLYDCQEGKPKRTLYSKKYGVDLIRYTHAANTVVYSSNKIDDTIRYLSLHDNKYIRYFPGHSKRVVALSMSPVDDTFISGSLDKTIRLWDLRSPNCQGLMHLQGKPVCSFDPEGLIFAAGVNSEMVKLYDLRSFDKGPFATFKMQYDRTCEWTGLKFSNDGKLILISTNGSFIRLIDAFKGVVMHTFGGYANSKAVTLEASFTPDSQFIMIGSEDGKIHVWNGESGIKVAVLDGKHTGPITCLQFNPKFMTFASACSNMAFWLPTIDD
UniProt E9Q784: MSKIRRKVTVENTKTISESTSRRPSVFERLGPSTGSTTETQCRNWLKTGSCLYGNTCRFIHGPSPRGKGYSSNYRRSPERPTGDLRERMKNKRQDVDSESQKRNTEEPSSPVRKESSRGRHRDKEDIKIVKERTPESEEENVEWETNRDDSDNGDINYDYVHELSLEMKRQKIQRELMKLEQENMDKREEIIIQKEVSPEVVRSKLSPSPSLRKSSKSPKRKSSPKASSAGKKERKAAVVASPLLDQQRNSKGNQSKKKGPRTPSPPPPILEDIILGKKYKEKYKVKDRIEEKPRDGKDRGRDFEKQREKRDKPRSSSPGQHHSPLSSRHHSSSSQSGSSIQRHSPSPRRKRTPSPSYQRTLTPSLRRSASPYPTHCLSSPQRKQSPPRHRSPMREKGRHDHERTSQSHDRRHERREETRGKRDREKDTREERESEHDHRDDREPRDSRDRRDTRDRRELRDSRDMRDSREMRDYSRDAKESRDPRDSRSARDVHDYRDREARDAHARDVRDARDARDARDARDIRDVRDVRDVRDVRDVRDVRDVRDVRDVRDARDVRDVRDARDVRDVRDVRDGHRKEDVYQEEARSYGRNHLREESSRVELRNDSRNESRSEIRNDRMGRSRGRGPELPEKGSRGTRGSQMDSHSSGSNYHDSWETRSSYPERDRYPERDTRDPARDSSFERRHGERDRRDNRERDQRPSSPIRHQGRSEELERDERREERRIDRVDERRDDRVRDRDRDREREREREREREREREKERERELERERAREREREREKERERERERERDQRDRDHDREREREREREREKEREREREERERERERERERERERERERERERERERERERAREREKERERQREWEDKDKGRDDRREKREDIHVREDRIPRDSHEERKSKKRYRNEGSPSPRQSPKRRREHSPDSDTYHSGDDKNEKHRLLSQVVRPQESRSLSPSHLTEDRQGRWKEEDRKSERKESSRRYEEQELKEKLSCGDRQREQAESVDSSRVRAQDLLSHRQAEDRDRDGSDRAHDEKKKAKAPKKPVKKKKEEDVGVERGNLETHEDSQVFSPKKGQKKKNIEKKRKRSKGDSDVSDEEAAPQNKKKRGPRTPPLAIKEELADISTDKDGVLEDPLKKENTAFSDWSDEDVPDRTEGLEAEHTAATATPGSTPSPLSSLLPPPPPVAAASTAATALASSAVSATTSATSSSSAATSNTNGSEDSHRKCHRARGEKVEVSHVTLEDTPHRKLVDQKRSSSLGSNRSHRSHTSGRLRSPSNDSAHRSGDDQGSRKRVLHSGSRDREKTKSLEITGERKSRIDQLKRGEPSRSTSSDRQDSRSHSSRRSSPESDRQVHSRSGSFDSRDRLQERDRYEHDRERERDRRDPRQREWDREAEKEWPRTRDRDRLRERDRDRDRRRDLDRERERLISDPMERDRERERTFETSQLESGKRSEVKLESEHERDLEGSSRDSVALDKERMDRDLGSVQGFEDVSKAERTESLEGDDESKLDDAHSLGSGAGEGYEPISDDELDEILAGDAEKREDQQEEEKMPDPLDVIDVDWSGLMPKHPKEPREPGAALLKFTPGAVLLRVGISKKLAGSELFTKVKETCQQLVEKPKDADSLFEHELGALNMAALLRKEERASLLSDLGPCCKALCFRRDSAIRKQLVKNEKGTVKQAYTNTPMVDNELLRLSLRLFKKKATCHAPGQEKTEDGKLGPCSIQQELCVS

B1: CBLL1 (protein, UniProt Q9JIY2 1-491)
chain: MDHTDNELQGTNSSGSLGGLDVRRRIPIKLISKQASKVKPAPRTQRTVSRMPAKAPQGDEEGFDYNEEQRYDCKGGELFGNQRRFPGHLFWDFKINILGEKDDTPVHFCDKCGLPIKVYGRMIPCKHVFCYDCAILHEKKGDKMCPGCSDPVQRIEQCTRGSLFMCSIVQGCKRTYLSQRDLQAHINHRHMRAGKPVTRASLENVHPPIAPPPTDIPDRFIMPPDKHHMSHIPPKQHIMMPPPPLQHVPHEHYNQPHEDIRAPPAELSMAPPPPRSVSQETFRISTRKHSNLITVPIQDDSSSGAREPPPPAPAPAHHHPEYQGQPVVSHPHHIMPPQQHYAPPPPPPPPISHPMPHPPQAAGTPHLVYSQAPPPPMTSAPPPITPPPGHIIAQMPPYMNHPPPGPPPPQHGGPPVTAPPPHHYNPNSLPQFTEDQGTLSPPFTQPGGMSPGIWPAPRGPPPPPRMQGPPSQTPLPGPHHPDQTRYRPYYQ
B2: WTAP (protein, UniProt Q9ER69 1-396)
chain: MTNEEPLPKKVRLSETDFKVMARDELILRWKQYEAYVQALEGKYTDLNSNDVTGLRESEEKLKQQQQESARRENILVMRLATKEQEMQECTTQIQYLKQVQQPSVAQLRSTMVDPAINLFFLKMKGELEQTKDKLEQAQNELSAWKFTPDSQTGKKLMAKCRMLIQENQELGRQLSQGRIAQLEAELALQKKYSEELKSSQDELNDFIIQLDEEVEGMQSTILVLQQQLKETRQQLAQYQQQQSQASAPSTSRTTSSEPVDQAEVTSKDCSRLANGPSNGSSSRQRTSGSGFHREGSTPEDDFPSSSGNGNKASNSSEERTGRGGSSYINPLSAGYESVDSPTGSENSLTHHSNDTDSSHDPQEEKAVSGKGNRTVGSRHVQNGLDSSVNVQGAVL

Biological target: T1, emGFP-PreScission-RBM15 (UniProt Q0VBL3)
T1 sequence: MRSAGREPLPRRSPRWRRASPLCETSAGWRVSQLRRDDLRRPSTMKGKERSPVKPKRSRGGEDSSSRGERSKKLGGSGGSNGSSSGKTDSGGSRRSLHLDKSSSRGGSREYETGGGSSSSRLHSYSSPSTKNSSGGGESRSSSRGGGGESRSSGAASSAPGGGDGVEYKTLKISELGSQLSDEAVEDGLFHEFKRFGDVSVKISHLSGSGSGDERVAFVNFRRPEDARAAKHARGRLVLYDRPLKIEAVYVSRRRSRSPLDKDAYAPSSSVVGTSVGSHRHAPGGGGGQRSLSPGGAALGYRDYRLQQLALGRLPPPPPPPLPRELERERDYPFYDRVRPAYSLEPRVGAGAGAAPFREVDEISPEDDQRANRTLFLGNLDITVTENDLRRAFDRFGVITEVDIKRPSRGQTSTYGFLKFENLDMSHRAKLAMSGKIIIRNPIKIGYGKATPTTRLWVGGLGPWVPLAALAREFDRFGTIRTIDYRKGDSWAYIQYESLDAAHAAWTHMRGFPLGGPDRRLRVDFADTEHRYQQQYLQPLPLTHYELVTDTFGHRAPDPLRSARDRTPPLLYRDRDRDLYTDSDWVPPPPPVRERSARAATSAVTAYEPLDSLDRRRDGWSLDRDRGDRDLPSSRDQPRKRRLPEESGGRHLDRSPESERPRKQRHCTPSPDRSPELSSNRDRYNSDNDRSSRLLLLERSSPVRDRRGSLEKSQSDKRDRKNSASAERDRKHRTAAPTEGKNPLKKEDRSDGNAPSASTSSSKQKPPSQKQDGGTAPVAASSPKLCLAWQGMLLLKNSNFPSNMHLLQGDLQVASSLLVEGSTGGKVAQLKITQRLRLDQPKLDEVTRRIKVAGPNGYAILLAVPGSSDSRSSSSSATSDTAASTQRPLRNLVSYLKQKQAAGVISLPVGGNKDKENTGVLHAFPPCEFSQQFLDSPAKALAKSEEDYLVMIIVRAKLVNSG
Assay: affinity purification with mass spectrometry; emGFP-PreScission-RBM15 captured on GFP-nanobody Dynabeads from benzonase-treated mESC nuclear extract (Dox 24 hr), 4 hrs at 4°C, IP buffer with 350mM NaCl, 20mM Hepes pH7.9, 0.2% Tween20; eluted by PreScission Protease; LC-MS/MS; control-IP from cells without Dox; two replicates, more than eight-fold enriched

binding, binds:
KIAA1429 (from UniProt A2AIV2 1-1811)
RBBP6 (from UniProt P97868 1-1790)
SPEN (from UniProt Q62504 1-3644)
WDR82 (from UniProt Q8BFQ4 1-313)
ZC3H13 (from UniProt E9Q784 1-1729)
B1
B2
